In article PMC4207043, “Distinct N-terminal regions of the exomer secretory vesicle cargo Chs3 regulate its trafficking itinerary” (Frontiers in Cell and Developmental Biology, 2014):
These are yes or no findings as the source states them, for the method shown. Sequences can lack the tags named with a protein.

Target: T1, Recombinant "core" exomer complex (Chs5 residues 1–77 and Chs6-6xHis) (S. cerevisiae) (UniProt Q12114+P40955)
T1 sequence 1: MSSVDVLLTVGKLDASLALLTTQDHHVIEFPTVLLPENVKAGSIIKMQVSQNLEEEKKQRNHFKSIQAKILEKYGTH
T1 sequence 2: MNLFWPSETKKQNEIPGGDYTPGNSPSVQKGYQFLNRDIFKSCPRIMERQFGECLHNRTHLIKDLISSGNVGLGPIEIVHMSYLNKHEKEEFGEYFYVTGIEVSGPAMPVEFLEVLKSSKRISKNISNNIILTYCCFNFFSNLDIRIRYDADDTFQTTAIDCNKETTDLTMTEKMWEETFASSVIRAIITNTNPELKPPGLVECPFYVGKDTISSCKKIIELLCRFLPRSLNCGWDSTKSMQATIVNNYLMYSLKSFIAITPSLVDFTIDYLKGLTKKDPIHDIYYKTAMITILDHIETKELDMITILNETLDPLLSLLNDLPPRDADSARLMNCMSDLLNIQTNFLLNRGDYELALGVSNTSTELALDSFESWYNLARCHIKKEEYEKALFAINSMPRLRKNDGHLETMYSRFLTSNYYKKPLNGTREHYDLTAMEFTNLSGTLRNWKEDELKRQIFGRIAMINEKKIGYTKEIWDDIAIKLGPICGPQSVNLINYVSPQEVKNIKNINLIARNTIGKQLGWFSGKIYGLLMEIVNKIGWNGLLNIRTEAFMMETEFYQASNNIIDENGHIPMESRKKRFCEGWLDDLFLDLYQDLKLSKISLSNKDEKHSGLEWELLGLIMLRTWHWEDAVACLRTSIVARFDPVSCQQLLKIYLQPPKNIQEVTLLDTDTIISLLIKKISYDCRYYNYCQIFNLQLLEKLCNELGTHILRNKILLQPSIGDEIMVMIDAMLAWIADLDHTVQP
Assay: crystal structure; exomer crystals soaked with the peptide; additional electron density looked for; both purified

binding: no binding
Binder: QDENEGEFDHSKIKMRTWREFEREDILNRKEESDSFVA (peptide, UniProt P29465 1128-1165) [Peptide corresponding to residues 1128–1165 of the Chs3 C-terminus]
